Literature values as cited in patent US7649113B2, “Mono, di and tri cyclic compounds useful for lowering IgE concentrations” (The Research Foundation of State University of New York, priority 2003, dated 2010).
At least one structure is not confirmed: it was looked up by name or label, or the drawing left a doubt.

System: human whole blood cultures
Settings: physiological doses; cited from earlier work

CN(C)[C@@H]1C(O)=C(C(N)=O)C(=O)[C@@]2(O)C(O)=C3C(=O)c4c(O)cccc4[C@@](C)(O)[C@H]3C[C@@H]12 [tetracycline]
mitotic responses to phytohemagglutinin: inhibits
